In paper doi:10.1101/2024.01.10.575110 one finds binding data, which are given here for three substances.

By UniProt entry, the sequences of proteins in these tests, tags left out. Where a name states a change or a piece, a line headed by the entry shows the natural chain unless it says otherwise. Chains listed by the source or under a name are the forms on record and can include a tag or linker.
androgen receptor splice variant 7 (AR variant-7) (P10275-3, form named): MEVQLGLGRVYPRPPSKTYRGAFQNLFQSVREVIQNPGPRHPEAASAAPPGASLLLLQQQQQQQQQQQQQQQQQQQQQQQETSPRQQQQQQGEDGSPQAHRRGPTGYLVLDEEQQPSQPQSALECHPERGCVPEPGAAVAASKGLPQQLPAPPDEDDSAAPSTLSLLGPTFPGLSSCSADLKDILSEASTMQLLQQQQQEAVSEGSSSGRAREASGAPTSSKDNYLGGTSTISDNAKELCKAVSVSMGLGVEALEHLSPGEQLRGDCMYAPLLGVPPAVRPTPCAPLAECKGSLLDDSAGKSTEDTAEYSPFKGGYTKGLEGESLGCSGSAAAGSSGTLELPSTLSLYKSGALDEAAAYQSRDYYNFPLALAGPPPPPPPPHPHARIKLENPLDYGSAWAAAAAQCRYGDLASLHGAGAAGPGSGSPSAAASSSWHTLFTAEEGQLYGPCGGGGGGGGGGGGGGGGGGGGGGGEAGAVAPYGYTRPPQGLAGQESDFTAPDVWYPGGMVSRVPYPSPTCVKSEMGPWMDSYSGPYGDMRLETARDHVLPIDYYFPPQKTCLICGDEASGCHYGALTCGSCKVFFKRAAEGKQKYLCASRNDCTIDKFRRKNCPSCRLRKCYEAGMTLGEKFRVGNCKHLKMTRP
UniProt Q92826: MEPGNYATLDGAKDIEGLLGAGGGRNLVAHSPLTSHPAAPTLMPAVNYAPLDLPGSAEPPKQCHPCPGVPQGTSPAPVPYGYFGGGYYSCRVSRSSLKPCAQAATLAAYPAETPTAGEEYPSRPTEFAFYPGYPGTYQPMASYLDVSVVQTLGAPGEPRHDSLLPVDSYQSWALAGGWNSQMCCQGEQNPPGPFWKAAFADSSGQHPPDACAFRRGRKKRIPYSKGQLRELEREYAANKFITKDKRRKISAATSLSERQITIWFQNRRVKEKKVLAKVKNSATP
UniProt P51532: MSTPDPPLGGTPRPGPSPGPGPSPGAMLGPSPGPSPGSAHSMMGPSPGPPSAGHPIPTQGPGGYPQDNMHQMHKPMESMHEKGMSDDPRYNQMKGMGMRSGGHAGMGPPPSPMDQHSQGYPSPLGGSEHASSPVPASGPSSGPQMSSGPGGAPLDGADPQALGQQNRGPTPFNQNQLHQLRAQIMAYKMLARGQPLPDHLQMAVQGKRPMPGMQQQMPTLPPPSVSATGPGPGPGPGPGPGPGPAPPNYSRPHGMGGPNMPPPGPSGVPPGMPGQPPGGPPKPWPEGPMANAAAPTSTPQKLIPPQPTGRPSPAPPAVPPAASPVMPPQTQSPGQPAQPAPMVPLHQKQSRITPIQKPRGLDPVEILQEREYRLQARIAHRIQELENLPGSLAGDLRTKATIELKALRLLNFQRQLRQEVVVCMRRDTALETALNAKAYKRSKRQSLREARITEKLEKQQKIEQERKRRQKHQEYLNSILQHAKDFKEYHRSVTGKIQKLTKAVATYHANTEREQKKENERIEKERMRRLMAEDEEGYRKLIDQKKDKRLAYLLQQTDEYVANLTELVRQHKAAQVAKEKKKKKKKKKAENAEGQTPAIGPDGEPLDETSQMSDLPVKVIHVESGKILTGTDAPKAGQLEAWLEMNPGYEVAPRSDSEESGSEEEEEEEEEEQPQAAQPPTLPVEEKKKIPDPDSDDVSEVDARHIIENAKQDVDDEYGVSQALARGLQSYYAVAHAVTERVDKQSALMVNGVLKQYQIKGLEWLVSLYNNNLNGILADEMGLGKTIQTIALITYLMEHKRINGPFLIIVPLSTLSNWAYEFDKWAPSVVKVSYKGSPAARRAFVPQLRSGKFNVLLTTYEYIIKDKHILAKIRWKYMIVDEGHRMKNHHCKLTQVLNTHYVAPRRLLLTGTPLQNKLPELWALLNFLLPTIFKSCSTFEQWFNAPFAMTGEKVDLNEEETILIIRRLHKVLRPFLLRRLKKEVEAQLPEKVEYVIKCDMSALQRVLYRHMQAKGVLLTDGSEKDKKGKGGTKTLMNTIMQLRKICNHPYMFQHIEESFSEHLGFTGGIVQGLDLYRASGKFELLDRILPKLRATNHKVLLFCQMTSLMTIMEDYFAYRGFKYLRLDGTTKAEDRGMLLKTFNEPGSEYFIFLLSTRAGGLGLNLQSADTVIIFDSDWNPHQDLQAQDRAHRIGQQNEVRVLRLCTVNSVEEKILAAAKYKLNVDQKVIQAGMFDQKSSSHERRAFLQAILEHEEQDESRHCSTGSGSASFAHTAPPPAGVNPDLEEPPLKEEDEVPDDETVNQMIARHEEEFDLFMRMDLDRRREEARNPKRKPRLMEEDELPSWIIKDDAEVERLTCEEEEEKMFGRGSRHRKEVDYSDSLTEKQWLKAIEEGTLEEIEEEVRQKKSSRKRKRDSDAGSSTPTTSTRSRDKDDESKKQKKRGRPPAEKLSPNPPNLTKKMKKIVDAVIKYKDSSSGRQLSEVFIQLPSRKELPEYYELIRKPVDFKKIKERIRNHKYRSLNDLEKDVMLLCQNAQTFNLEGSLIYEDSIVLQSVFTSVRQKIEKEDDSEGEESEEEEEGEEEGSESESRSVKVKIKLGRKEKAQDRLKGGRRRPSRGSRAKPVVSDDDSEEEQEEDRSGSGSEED

Experiment [1] addresses androgen receptor splice variant 7 (AR variant-7) (human (endogenous in VCaP16)) (UniProt P10275). In words: co-IP.
The target in experiment [2] is HOXB13 (human (endogenous in VCaP16)) (UniProt Q92826). In words: co-IP.

No constants are given. Whether binding was seen depends on the method and setting. Binding seen in cells or lysates may run through a third protein. Some binding calls cover weakened binding; strength is not graded here.

For BRG1 (from UniProt P51532 1-1647), in experiment [1], the binding result is listed as “binds”. As for HOXB13 (from UniProt Q92826 1-284), the binding entry in experiment [1] is on record as “binds”. Consider “androgen receptor splice variant 7 (AR variant-7) (from UniProt P10275-3 1-644)”, for which the binding entry in experiment [2] is reported as “binds”.
